Each structure is given as a SMILES string.

This data set in a line: Sensory evaluation of the pigment dispersions on the forearm. The settings on record: black iron oxide dispersion on forearm; scale from 1 (low) to 5 (high).
Regarding `CCCCCCCCC(=O)OCC(COC(=O)CCCCCCCC)OC(=O)CCCCCCCC` [Glycerol tripelargonate], the Film evennes amounted to 4, the Flowability is given as 5, the Gloss effect is listed as 5 and the Writing capability/color intensity was 4.

Regarding `CC(C)CCCCCCOC(=O)CCCCCC(C)C` [Isononyl Isononanoate, reference compound], the Film evennes is 2, the Flowability is reported as 4, the Gloss effect was 2 and the Writing capability/color intensity was 2.

As for `CCCCCCCCC(=O)OCC(C)(C)COC(=O)CCCCCCCC` [Neopentyl glycol dipelargonate], the Film evennes is recorded as 4, the Flowability was determined as 2, the Gloss effect turned out to be 2 and the Writing capability/color intensity was 3.

For the compound `CCCCCCCCC(=O)OCC(COC(=O)CCCCCCCC)(COC(=O)CCCCCCCC)COC(=O)CCCCCCCC` [Pentaerythritol tetrapelargonate], the Film evennes turned out to be 4, the Flowability came to 4, the Gloss effect turned out to be 5 and the Writing capability/color intensity worked out at 4.

(Values after patent publication US10758466B2, “Powder-based cosmetic compositions containing pelargonic acid esters” (Novamont S.p.A., priority 2015, dated 2020).)
